Results: paper PMC4571948

Sequences of proteins named here, by UniProt entry; tags and fusion partners are left off. Residues count along the entry.
UniProt Q80TN5, residues 1-305: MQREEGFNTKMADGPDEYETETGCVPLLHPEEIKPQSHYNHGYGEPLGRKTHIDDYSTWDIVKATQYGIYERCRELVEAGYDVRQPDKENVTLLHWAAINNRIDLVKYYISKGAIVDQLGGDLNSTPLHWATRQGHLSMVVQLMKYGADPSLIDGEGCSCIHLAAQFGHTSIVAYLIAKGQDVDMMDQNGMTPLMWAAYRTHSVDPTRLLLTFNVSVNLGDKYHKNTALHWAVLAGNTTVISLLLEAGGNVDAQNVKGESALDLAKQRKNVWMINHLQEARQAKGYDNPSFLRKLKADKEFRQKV

Target: GST-17NAnk (GST-tagged N-terminal (1–305) zDHHC17) (murine) (UniProt Q80TN5)
Assay: affinity purification with mass spectrometry; GST-17NAnk pulldown of rat brain proteins, SDS-PAGE, Coomassie; gel slices with bands missing from control GST pulldowns identified by mass spectrometry; only the target purified

binding: binds
B1: rat MAP6 (from rat brain proteins) (protein, UniProt Q63560 1-952)
chain: MAWPCITRACCIARFWNQLDKADIAVPLVFTKYSEATEHPGAPPQPPAPPQPGLAPPSRAVAIETQPAQGESDAVARATGPAPGPSGDRETAAAPGRSGLGLGAASGSTSGSGPADSVMRQDYRAWKVQRPEPSCRPRSEYQPSDAPFERETQYQKDFRAWPLPRRGDHPWIPKPVQIPATSQPSPPVLGMPKRRPQSQERGPIQLSADARDPEGAGGAGVPAAGKASGADQRDTRRKAGPAWMVTRTEGHEEKPLPPAQSQTQEGGPAAGKASGADQRDTRRKAGPAWMVTRTEGHEEKPLPPAQSQTQEGGPAAGKASGADQRDTRRKAGPAWMVTRTEGHEETPLPPAQSQTQEGGPAAGKASGADQRDTRRKAGPAWMVTRTEGHEETPLPPAQSQTQEGGPAAGKASGADERDTRRKAGPAWMVRRSEGHEQTTAAHAQGTGPEGGKGRAVADALNRQIREEVTSTVSSSYRNEFRAWTDIKPVKPIKAKPQYKPPDDKMVHETSYSAQFKGEASKPTTADNKVVDRRRIRSLYSEPFKESPKVEKPSVQSSKPKKTSTSQKPLRKAKDKQVASGQAAKKKTTESPSATKPDDKEQSKEMNNKLAEAKESRVKPTSDKNQGPVAKEPHKDQGPVAPGLPKGQGPAVQEPLKDQGPMVPGLPKDQAPVVPGSLKGQSPTAPGPPKDQGAVLLGPMKDLGPVAPASVKDQDHMASELLKNKDSVPLAPAKAQSPLLPEPLKNQSPVVPARAKDQSFPAPAPTPLKDPGPVIPEPEKDGAPMVPERRKDQNASIMASLKNEAPVASESVKNQGLGGPEPAKDTGTDLKGHGSVFVAPVKSQGPVVPEPTKGQDPIIPALAKDQGPILPEPPKNQGPPVVLGPIKNQDPVIPVPLKGQDPVVPAPTKDPGPTAPDPLKSQGPRGPQLPTVSPSPPVMIPTVPHAEYIEGSP

No constants are given. Whether binding was seen depends on the method and setting. In cells and extracts the contact can be indirect. A yes stands for co-enrichment or nearness to the bait. Other partners may have been found.
